Assay results as given in publication PMC7830611.
Results are given in words; binding and its absence hold for the method and conditions named. For some assays here: Binding seen in cells or lysates may run through a third protein. Some results given as binding are weak or reduced against the parent protein; the word gives no strength. For some assays here: Sequences can lack the tags named with a protein.

B1: AtCAX4, full length, in pGADT7 (protein, UniProt Q945S5 1-446)
chain: MSSISTESSSNLSLLENGGGGSDKPTAETSRRVRRTVSASSLIRKRSDLKLISRVRWEFMRRILTNLQEVLLGTKLFILFPAVPLAVVAHRYDCPRAWVFALSLLGLTPLAERISFLTEQIAFHTGPTVGGLMNATCGNATEMIIAILAVGQRKMRIVKLSLLGSILSNLLFVLGTSLFLGGISNLRKHQSFDPRQGDMNSMLLYLALLCQTLPMIMRFTMEAEEYDGSDVVVLSRASSFVMLIAYLAFLIFHLFSSHLSPPPPPLPQREDVHDDDVSDKEEEGAVIGMWSAIFWLIIMTLLVALLSDYLVSTIQDAADSWGLSVGFIGIILLPIVGNAAEHAGAVIFAFRNKLDITLGIALGSATQIALFVVPVTVLVAWTMGIEMDLNFNLLETACFALSILVTSLVLQDGTSNYMKGLVLLLCYVVIAACFFVSNSPSSKLLF
B2: AtCAX4, full length, BiFC fusion (protein, UniProt Q945S5 1-446)
chain: B1 chain

Key:
[1] = target: T1, AtCAX1, full length, in pGBKT7 (Arabidopsis thaliana) (UniProt Q39253); assay: two-hybrid; Matchmaker Gold system, Y2HGold yeast; AtCAX1 constructs in pGBKT7, AtCAX4 constructs in pGADT7; SD-Leu-Trp-His-Ade+X-a-gal+AbA medium, 2-3 days at 30 °C; blue colonies
T1 sequence: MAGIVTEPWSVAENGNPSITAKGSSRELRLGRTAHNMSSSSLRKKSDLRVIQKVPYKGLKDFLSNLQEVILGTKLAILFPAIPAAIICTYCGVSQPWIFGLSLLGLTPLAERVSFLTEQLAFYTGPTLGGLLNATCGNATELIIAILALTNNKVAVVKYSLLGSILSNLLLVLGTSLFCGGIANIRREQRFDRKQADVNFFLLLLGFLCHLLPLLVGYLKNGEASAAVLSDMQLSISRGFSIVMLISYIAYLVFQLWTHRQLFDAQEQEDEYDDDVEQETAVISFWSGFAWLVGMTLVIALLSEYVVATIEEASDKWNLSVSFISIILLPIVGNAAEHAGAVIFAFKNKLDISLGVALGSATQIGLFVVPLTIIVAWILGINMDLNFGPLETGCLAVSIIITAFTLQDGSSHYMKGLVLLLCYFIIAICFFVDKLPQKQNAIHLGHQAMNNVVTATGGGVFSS

[2] = target: T2, AtCAX1, full length, BiFC fusion (Arabidopsis thaliana) (UniProt Q39253); assay: split reporter; BiFC with mVenus halves VN154 (nGFP) and VC80 (cGFP), 35S promoter, co-expressed in onion epidermal cells by particle bombardment; confocal microscopy
T2 sequence: T1 sequence

Row | Binder | binding [1] | binding [2]
1 | B1 | binds | –
2 | B2 | – | binds
